Assay results published in the supplement of paper PMC10849652.
The other results are listed elsewhere or left out.

The chains behind the UniProt entries cited, without tags or fusion partners. Where a name states a change or a piece, a line headed by the entry shows the natural chain unless it says otherwise.
UniProt Q9Y5B8, whole entry, looked up: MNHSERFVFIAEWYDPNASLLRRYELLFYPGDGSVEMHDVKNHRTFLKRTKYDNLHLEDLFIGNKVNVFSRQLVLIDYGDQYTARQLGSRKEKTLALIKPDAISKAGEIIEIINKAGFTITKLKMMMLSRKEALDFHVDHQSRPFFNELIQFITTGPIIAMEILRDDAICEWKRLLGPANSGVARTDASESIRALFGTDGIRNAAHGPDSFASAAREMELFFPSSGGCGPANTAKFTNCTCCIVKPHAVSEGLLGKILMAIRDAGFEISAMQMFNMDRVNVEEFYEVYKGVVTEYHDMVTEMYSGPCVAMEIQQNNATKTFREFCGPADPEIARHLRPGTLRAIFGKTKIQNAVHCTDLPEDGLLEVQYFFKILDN
UniProt Q9ULX3: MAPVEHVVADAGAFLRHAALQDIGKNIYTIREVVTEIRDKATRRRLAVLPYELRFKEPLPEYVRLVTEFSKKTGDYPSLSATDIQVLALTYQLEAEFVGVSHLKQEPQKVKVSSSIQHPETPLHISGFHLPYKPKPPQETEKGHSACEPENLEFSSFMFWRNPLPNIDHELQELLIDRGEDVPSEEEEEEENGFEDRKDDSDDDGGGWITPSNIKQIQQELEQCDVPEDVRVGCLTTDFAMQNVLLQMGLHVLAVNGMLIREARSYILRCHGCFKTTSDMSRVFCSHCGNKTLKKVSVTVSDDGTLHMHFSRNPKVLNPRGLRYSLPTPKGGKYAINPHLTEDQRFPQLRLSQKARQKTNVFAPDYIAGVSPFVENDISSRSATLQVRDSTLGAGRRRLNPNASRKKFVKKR
UniProt O00567: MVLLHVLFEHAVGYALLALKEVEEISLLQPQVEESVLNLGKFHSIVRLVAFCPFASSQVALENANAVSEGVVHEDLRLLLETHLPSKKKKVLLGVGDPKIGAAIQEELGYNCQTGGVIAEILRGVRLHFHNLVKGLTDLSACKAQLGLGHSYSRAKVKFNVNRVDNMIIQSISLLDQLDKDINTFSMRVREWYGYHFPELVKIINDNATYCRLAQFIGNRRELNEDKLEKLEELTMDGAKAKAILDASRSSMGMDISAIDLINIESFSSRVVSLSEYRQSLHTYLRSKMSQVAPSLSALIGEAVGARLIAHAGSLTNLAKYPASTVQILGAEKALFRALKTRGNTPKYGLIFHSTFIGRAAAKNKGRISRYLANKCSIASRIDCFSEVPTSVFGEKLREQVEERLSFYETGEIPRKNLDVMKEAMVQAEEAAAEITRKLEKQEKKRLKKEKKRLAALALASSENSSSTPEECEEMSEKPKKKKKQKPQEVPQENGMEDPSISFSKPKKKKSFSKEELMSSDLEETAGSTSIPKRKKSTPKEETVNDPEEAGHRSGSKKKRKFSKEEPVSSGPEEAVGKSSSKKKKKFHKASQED
UniProt Q8IVD9: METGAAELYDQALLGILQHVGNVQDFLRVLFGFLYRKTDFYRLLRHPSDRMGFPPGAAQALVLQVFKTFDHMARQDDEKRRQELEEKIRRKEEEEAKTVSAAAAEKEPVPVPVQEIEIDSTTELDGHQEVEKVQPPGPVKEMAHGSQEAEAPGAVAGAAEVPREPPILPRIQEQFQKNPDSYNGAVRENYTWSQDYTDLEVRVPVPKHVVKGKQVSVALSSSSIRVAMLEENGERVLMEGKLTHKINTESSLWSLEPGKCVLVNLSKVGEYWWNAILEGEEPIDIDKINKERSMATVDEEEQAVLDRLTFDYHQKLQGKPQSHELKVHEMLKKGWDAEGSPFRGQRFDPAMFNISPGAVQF
UniProt O43809, whole entry, looked up: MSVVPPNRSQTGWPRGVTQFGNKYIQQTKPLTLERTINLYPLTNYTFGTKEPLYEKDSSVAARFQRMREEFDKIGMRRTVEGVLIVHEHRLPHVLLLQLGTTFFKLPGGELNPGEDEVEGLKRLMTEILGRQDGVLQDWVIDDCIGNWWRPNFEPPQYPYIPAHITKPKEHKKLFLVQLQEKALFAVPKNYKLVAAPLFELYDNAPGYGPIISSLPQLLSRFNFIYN
UniProt Q13232: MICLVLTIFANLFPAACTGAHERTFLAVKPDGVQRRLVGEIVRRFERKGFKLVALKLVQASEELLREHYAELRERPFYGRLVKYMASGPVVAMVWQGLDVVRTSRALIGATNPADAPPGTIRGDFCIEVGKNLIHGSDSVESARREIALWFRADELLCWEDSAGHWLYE
UniProt Q9BZD4: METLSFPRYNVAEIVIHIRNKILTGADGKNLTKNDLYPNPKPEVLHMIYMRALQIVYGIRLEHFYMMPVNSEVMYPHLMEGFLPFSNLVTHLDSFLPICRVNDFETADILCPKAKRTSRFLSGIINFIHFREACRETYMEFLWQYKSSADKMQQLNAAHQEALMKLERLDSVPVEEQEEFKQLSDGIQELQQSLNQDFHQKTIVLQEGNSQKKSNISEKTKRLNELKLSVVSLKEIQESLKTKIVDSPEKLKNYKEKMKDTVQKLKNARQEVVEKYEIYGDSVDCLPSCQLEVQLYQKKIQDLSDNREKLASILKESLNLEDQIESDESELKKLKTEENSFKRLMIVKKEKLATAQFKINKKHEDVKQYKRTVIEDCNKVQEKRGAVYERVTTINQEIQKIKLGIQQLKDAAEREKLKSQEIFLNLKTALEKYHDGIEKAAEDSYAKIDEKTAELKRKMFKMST

How the values were obtained:
Assay in all cases: log2 fold change, soluble protein after heating vs DMSO (PISA); higher = thermal stabilisation; K562 lysate, 10 uM; active = over 0.2 and 3.5 SD of the protein, either way, in both replicates (recomputed)
vemurafenib = compound: CCCS(=O)(=O)Nc1ccc(F)c(C(=O)c2c[nH]c3ncc(-c4ccc(Cl)cc4)cc23)c1F [vemurafenib]
Outline: (§1)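 A 30 min treatment with 10 μM compound was applied to crude K562 extract at 1 mg/mL protein in PBS pH 7.4 with 1 mM MgCl2. Heating for 3 min spanned 48°C-58°C, after which aliquots were pooled, adjusted to 0.5% NP-40 at 4°C and spun at 21,000xg for 90 min. TMTpro 16plex LC-MS/MS of the supernatant, with channel sums equalised, gave values recorded as log-two fold change in thermal stability against solvent controls, from duplicates.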

[1] = compound: CCCS(=O)(=O)Nc1ccc(F)c(C(=O)c2c[nH]c3ncc(Cl)cc23)c1F
Outline: as §1

barasertib = compound: CCN(CCCOc1ccc2c(Nc3cc(CC(=O)Nc4cccc(F)c4)[nH]n3)ncnc2c1)CCOP(=O)(O)O [barasertib]
Outline: as §1

[2] = compound: CC[C@@H]1C(=O)N(C)c2cnc(Nc3ccc(C(=O)NC4CCN(C)CC4)cc3OC)nc2N1C1CCCC1
Outline: as §1

volasertib = compound: CC[C@@H]1C(=O)N(C)c2cnc(Nc3ccc(C(=O)N[C@H]4CC[C@H](N5CCN(CC6CC6)CC5)CC4)cc3OC)nc2N1C(C)C [volasertib]
Outline: as §1

[3] = compound: CCn1c(C(=O)N(C2CC2)C2CC2)cc2c3c(ncn3C)c(Nc3cc(C)n(C)n3)nc21
Outline: as §1

[4] = compound: CCn1cc(-c2ccnc3[nH]c(-c4cccc(CN(C)C)c4)cc23)c(-c2ccc(NC(=O)N(C)C)cc2)n1
Outline: as §1

[5] = compound: CN1CCC(CNc2ccc3ncc(-c4cccc(OC(F)(F)F)c4)n3n2)CC1
Outline: as §1

saracatinib = compound: CN1CCN(CCOc2cc(OC3CCOCC3)c3c(Nc4c(Cl)ccc5c4OCO5)ncnc3c2)CC1 [saracatinib]
Outline: as §1

sotrastaurin = compound: CN1CCN(c2nc(C3=C(c4c[nH]c5ccccc45)C(=O)NC3=O)c3ccccc3n2)CC1 [sotrastaurin]
Outline: as §1

alvocidib = compound: CN1CC[C@H](c2c(O)cc(O)c3c(=O)cc(-c4ccccc4Cl)oc23)[C@H](O)C1 [alvocidib]
Outline: as §1

Tubastatin A = compound: CN1CCc2c(c3ccccc3n2Cc2ccc(C(=O)NO)cc2)C1 [Tubastatin A]
Outline: as §1

[6] = compound: CNC(=O)C1=CC=CC=C1NC2=NC(=NC=C2Cl)NC3=C(C=C(C=C3)N4CCOCC4)OC
Outline: as §1

defactinib = compound: CNC(=O)c1ccc(Nc2ncc(C(F)(F)F)c(NCc3nccnc3N(C)S(C)(=O)=O)n2)cc1 [defactinib]
Outline: as §1

[7] = compound: CNc1nc(-c2ccc3c(N)n[nH]c3c2)cc(N2C[C@@H](C(=O)NC3CCCCC3)CC[C@H]2C)n1
Outline: as §1

encorafenib = compound: COC(=O)N[C@@H](C)CNc1nccc(-c2cn(C(C)C)nc2-c2cc(Cl)cc(NS(C)(=O)=O)c2F)n1 [encorafenib]
Outline: as §1

[8] = compound: COC(=O)[C@H](CCSC)NC(=O)C1=C(C=C(C=C1)NC[C@H](CS)N)C2=CC=CC=C2
Outline: as §1

alisertib = compound: COc1cc(Nc2ncc3c(n2)-c2ccc(Cl)cc2C(c2c(F)cccc2OC)=NC3)ccc1C(=O)O [alisertib]
Outline: as §1

[9] = compound: COc1cc2nc(-c3cc(F)ccc3O)nc(N[C@@H]3CNC[C@H]3C(C)(C)O)c2cc1OC
Outline: as §1

gefitinib = compound: COc1cc2ncnc(Nc3ccc(F)c(Cl)c3)c2cc1OCCCN1CCOCC1 [gefitinib]
Outline: as §1

Measured: log2 fold change

NT5C3A (UniProt Q9H0P0)
inactive: vemurafenib 0.012 | [1] -0.002 | barasertib 0.038 | [2] 0.016 | volasertib -0.079 | [3] 0.028 | [4] -0.038 | [5] -0.134 | saracatinib -0.005 | sotrastaurin 0.06 | alvocidib -0.022 | Tubastatin A -0.052 | [6] 0.029 | defactinib 0.022 | [7] -0.003 | encorafenib 0.009 | [8] -0.056 | alisertib 0.038 | [9] 0.068 | gefitinib 0.006

NME7 (UniProt Q9Y5B8)
inactive: vemurafenib 0.01 | [1] 0.016 | barasertib 0.034 | [2] -0.059 | volasertib -0.012 | [3] -0.019 | [4] -0.018 | [5] 0.034 | saracatinib 0.004 | sotrastaurin 0.03 | alvocidib -0.024 | Tubastatin A -0.155 | [6] -0.01 | defactinib -0.018 | [7] -0.007 | encorafenib -0.007 | [8] 0.068 | alisertib 0.007 | [9] 0.001 | gefitinib 0.059

NOB1 (UniProt Q9ULX3)
inactive: vemurafenib -0.002 | [1] 0.032 | barasertib -0.053 | [2] -0.045 | volasertib -0.02 | [3] -0.003 | [5] -0.102 | saracatinib 0.018 | sotrastaurin -0.009 | alvocidib 0.077 | Tubastatin A -0.129 | [6] -0.005 | defactinib 0 | [7] -0.011 | encorafenib 0.036 | [8] 0.037 | alisertib 0.047 | [9] -0.031 | gefitinib -0.022
active: [4] 0.274

NOP56 (UniProt O00567)
inactive: vemurafenib -0.068 | [1] 0.032 | barasertib 0.003 | [2] -0.018 | volasertib -0.019 | [3] 0.011 | [4] 0.007 | [5] -0.032 | saracatinib 0.001 | sotrastaurin 0.011 | alvocidib 0.014 | Tubastatin A 0.012 | [6] -0.011 | defactinib 0.029 | [7] 0.086 | encorafenib 0 | [8] 0.06 | alisertib 0.007 | [9] -0.009 | gefitinib 0.008

NUDCD3 (UniProt Q8IVD9)
inactive: vemurafenib -0.045 | [1] 0.003 | barasertib -0.016 | [2] -0.027 | volasertib 0.007 | [3] 0.001 | [4] 0.034 | [5] 0.017 | saracatinib -0.007 | sotrastaurin -0.01 | alvocidib -0.005 | Tubastatin A 0.013 | [6] 0.015 | defactinib 0.007 | [7] 0.016 | encorafenib -0.005 | [8] 0.037 | alisertib -0.021 | [9] -0.001 | gefitinib 0.007

NUDT21 (UniProt O43809)
inactive: vemurafenib -0.013 | [1] -0.048 | barasertib 0.037 | [2] 0.015 | volasertib 0.01 | [3] -0.001 | [4] 0.113 | [5] 0.028 | saracatinib -0.012 | sotrastaurin -0.029 | alvocidib -0.027 | Tubastatin A 0.044 | [6] -0.055 | defactinib -0.022 | [7] 0.003 | encorafenib 0.043 | [8] -0.007 | alisertib 0 | [9] 0.002 | gefitinib -0.03

NME3 (UniProt Q13232)
inactive: vemurafenib 0.027 | [1] 0.003 | barasertib -0.002 | [2] 0.035 | volasertib -0.021 | [3] 0.024 | [4] 0.006 | [5] 0.03 | saracatinib -0.072 | sotrastaurin 0.036 | alvocidib 0.013 | Tubastatin A -0.002 | [6] 0.025 | defactinib -0.013 | [7] -0.037 | encorafenib 0.006 | [8] -0.114 | alisertib -0.198 | [9] 0.027 | gefitinib -0.053

NUF2 (UniProt Q9BZD4)
active: [8] 0.264
inactive: vemurafenib -0.01 | [1] 0.016 | barasertib 0.048 | [2] -0.126 | volasertib -0.029 | [3] 0.016 | [4] -0.069 | [5] -0.101 | saracatinib 0.032 | sotrastaurin 0.03 | alvocidib 0 | Tubastatin A -0.13 | [6] 0.03 | defactinib 0.021 | [7] -0.007 | encorafenib 0.027 | alisertib -0.012 | [9] 0.013 | gefitinib -0.033
